Structures can show the parent of a compound that is named as a salt. ± gives the standard deviation of the averaged measurements. The list shows a part of the results. Values are raw readings; no control value is given beside them.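 A single yeast strain with four plasmids, each encoding a fluorescent protein and an amino-acid or uracil biosynthesis gene, seeds the community. Stochastic plasmid loss yields mixed prototroph and auxotroph subpopulations. Fixed cells were counted via automated confocal fluorescence imaging; DMSO-treated wells were the vehicle reference.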 Numbered stars: 1 amine (or outer) side, 2 acyl side, 3 side chain; on linkers, the order of the positions; unused ones are H or OH. Bridge positions count the residues as written; N and C are the ends. Square brackets hold non-standard residues; d marks the D form. Peptide text beside a SMILES is read from it. * marks the point of attachment. hTyr(3S-OH,4S-OH,3'-OSO3H) = N[C@H](C(=O)O)[C@H](O)[C@@H](O)c1ccc(O)c(OS(=O)(=O)O)c1; Orn(4R-OH,5R-OH) = O=C([C@H](C[C@@H](O)[C@@H](O)N[*:3])N[*:1])[*:2]; Pro(3S-OH,4S-Me) = C[C@H]1CN[C@H](C(=O)O)[C@H]1O; X2 = CCCCCOc1ccc(-c2cc(-c3ccc(C(=O)*)cc3)no2)cc1; Gln(3R-OH) = NC(=O)C[C@@H](O)[C@H](N)C(=O)O; Hyp = O=C(O)[C@@H]1C[C@@H](O)CN1
Tested on: Saccharomyces cerevisiae BY4741 SeMeCo community
Experiment: imaged cell count per well (cells); higher = more cells
Settings: 10 µM; 24 h; SM minimal medium
Procedure: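 Same SeMeCo high-content imaging drug screen: Selleck FDA-approved drugs at 10 µM, 24 h in SM medium, 384-well plates, 3 replicates.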

Compound | imaged cell count per well
NC[C@H]1O[C@H](O[C@H]2[C@H](O)[C@@H](O[C@H]3O[C@H](CO)[C@@H](O)[C@H](N)[C@H]3O)[C@H](N)C[C@@H]2N)[C@H](O)[C@@H](O)[C@@H]1O [Kanamycin sulfate] | 27100 ± 10000
C[C@H]1NCc2cc(-c3ccc4c(=O)c(C(=O)O)cn(C5CC5)c4c3OC(F)F)ccc21 [Garenoxacin] | 24400 ± 2100
Clc1ccc(C(Cn2ccnc2)OCc2ccc(Sc3ccccc3)cc2)c(Cl)c1 (stereo not drawn) [Fenticonazole Nitrate] | 879 ± 240
CN1CCOC(c2ccccc2)c2ccccc2C1 (stereo not drawn) [Nefopam HCl] | 21700 ± 7300
NC(=O)N/N=C/c1ccc([N+](=O)[O-])o1 [Nitrofural] | 13400 ± 7300
CN[C@@H]1[C@@H](O[C@H]2O[C@H](CO)[C@@H](N)[C@H](O)[C@H]2O)OC2C[C@@H](N)[C@@H](O[C@H]3[C@H](O)[C@@H](O)[C@H](N)C[C@@H]3N)OC2[C@@H]1O (stereo partly drawn) [Apramycin Sulfate] | 22500 ± 9600
Clc1ccc(COC(Cn2ccnc2)c2ccc(Cl)cc2Cl)cc1 (stereo not drawn) [Econazole nitrate] | 4020 ± 1600
CO[C@H]1O[C@@H]2O[C@@]3(C)CC[C@H]4[C@H](C)CC[C@@H]([C@H]1C)[C@@]24OO3 [Artemether] | 20300 ± 3200
C#C[C@]1(O)CC[C@H]2[C@@H]3CCC4=Cc5oncc5C[C@]4(C)[C@H]3CC[C@@]21C [Danazol] | 29300 ± 5100
C[n+]1ccccc1/C=N/O [Pralidoxime chloride] | 27000 ± 1800
NC12CC3CC(CC(C3)C1)C2 [Amantadine] | 32330 ± 220
Cc1cc(CC(C)CC(C)(C)C)n(O)c(=O)c1 (stereo not drawn) [Piroctone Olamine] | 922 ± 360
Cn1c(=O)c2[nH]cnc2n(C)c1=O [Aminophylline] | 22800 ± 6400
CC(C(=O)O)c1ccc2c(c1)Cc1cccnc1O2 (stereo not drawn) [Pranoprofen] | 20200 ± 4600
O=C(O)Cc1ccccc1Nc1c(Cl)cccc1Cl [Diclofenac Diethylamine] | 20100 ± 4000
C[n+]1ccccc1C=NO [Pralidoxime Iodide] | 26400 ± 4900
CCC[S+]([O-])c1ccc2[nH]c(NC(=O)OC)nc2c1 (stereo not drawn) [Albendazole Oxide] | 23900 ± 9200
NC(=O)c1cn(Cc2c(F)cccc2F)nn1 [Rufinamide] | 27600 ± 5500
COc1ccc2c(c1)C(=O)N(CCc1ccc(S(=O)(=O)NC(=O)NC3CCCCC3)cc1)C(=O)C2(C)C [Gliquidone] | 24400 ± 8300

Compound | imaged cell count per well
CCOC(=O)C1=C(COCCN)NC(C)=C(C(=O)OC)C1c1ccccc1Cl (stereo not drawn) [Amlodipine Besylate] | 24600 ± 4400
COc1cc(Cc2cnc(N)nc2N)cc(OC)c1OC [Trimethoprim] | 20900 ± 13000
CN1C[C@@H]2C[C@H]1CN2c1cc2c(cc1F)c(=O)c(C(=O)O)cn2C1CC1 [Danofloxacin Mesylate] | 23900 ± 3400
Nc1ccc(S(=O)(=O)Nc2nccs2)cc1 [Sulfathiazole] | 26300 ± 5400
COc1cccc(-c2c(C)n(Cc3c(F)cccc3C(F)(F)F)c(=O)n(C[C@H](NCCCC(=O)O)c3ccccc3)c2=O)c1F [Elagolix Sodium] | 23900 ± 13000
CN1CCN(CCCN2c3ccccc3Sc3ccc(Cl)cc32)CC1 [Prochlorperazine dimaleate salt] | 21500 ± 6100
CCCCCOc1ccc(-c2cc(-c3ccc(C(=O)N[C@H]4C[C@@H](O)[C@@H](O)NC(=O)[C@@H]5[C@@H](O)[C@@H](C)CN5C(=O)[C@H]([C@H](O)CC(N)=O)NC(=O)[C@H]([C@H](O)[C@@H](O)c5ccc(O)c(OS(=O)(=O)O)c5)NC(=O)[C@@H]5C[C@@H](O)CN5C(=O)[C@H]([C@@H](C)O)NC4=O)cc3)no2)cc1 [Micafungin Sodium] (X2-[Orn(4R-OH,5R-OH)]T[Hyp][hTyr(3S-OH,4S-OH,3'-OSO3H)][Gln(3R-OH)][Pro(3S-OH,4S-Me)]; lactam 1-C) | 1010 ± 330
O=C(O)CCC(=O)OC[C@@H](NC(=O)C(Cl)Cl)[C@H](O)c1ccc([N+](=O)[O-])cc1 [Chloramphenicol sodium succinate] | 27900 ± 1800
COc1ccc2c(c1)c(CC(=O)OCC(=O)O)c(C)n2C(=O)c1ccc(Cl)cc1 [Acemetacin] | 22500 ± 8600
C[C@]12CC[C@@H]3c4ccc(OS(=O)(=O)O)cc4CC[C@H]3[C@@H]1CCC2=O [Estropipate] | 26300 ± 3500
Nc1nc2ccc(OC(F)(F)F)cc2s1 [Riluzole] | 18500 ± 7200
CN(C)CC/C=C1/c2ccccc2Sc2ccc(Cl)cc21 [Chlorprothixene] | 26500 ± 2100
O=C1NCC2(CCN(CCc3ccccc3)CC2)O1 [Fenspiride HCl] | 16800 ± 7400
C[C@]12CC[C@@H]3c4ccc(O)cc4CC[C@H]3[C@@H]1CC[C@@H]2O [Estradiol] | 19700 ± 1700
C[C@@H]1CN(c2c(F)c(N)c3c(=O)c(C(=O)O)cn(C4CC4)c3c2F)C[C@H](C)N1 [Sparfloxacin] | 27400 ± 2600
NC(=O)c1cnccn1 [Pyrazinamide] | 20200 ± 8400
CCCNC(C)C(=O)Nc1ccccc1C (stereo not drawn) [Prilocaine hydrochloride] | 22300 ± 6100
CO/N=C(\C(=O)N[C@@H]1C(=O)N2C(C(=O)O)=C(CSC(=O)c3ccco3)CS[C@H]12)c1csc(N)n1 [Ceftiofur] | 21200 ± 8100
Cc1nc2n(c(=O)c1CCN1CCC(c3noc4cc(F)ccc34)CC1)CCCC2 [Risperidone] | 25800 ± 3300

Laid out differently: 3 of the compounds above.
Compound	imaged cell count per well
COc1cc(Cc2cnc(N)nc2N)cc(OC)c1OC [Trimethoprim]	20900 ± 13000
CCCCCOc1ccc(-c2cc(-c3ccc(C(=O)N[C@H]4C[C@@H](O)[C@@H](O)NC(=O)[C@@H]5[C@@H](O)[C@@H](C)CN5C(=O)[C@H]([C@H](O)CC(N)=O)NC(=O)[C@H]([C@H](O)[C@@H](O)c5ccc(O)c(OS(=O)(=O)O)c5)NC(=O)[C@@H]5C[C@@H](O)CN5C(=O)[C@H]([C@@H](C)O)NC4=O)cc3)no2)cc1 [Micafungin Sodium] (X2-[Orn(4R-OH,5R-OH)]T[Hyp][hTyr(3S-OH,4S-OH,3'-OSO3H)][Gln(3R-OH)][Pro(3S-OH,4S-Me)]; lactam 1-C)	1010 ± 330
NC(=O)c1cnccn1 [Pyrazinamide]	20200 ± 8400

— the supplement of paper PMC8975748
